Experimental findings from patent publication US8377891 (dated 2013) are described below.

A short description of data set [1]: general procedure: peptide synthesis; H-Cys(Trt)-2-ChloroTrityl resin (0.6 mmoles/gm); HBTU/NMM. Particulars: acetate.
Data set [2] in a line: general procedure: peptide synthesis; H-Cys(Trt)-2-Chlorotrityl resin; HBTU/NMM. Particulars: whole synthesis, scale 10 mmole, acetate.

Square brackets hold non-standard residues; d marks the D form. Ends that are not written are not given here. A value given as a limit tells only on which side of the number the result lay.

As for “Boc-D-Phe-Cys(Trt)-Phe-D-Trp-Lys(Boc)-Thr(OBut)-Cys(Trt)-OH”, the “crude HPLC purity” value in data set [1] (whole synthesis, analytical RP-HPLC, scale of the general procedure 10 mmole) is given as 88.64%. For the same substance, the crude yield in data set [1] (whole synthesis, scale of the general procedure 10 mmole) is on record as greater than 95%.
For the substance D-Phe-Cys-Phe-D-Trp-Lys-Thr-Cys-Thr-OL, the step yield in data set [1] (late stage modification step) was greater than 95%.
As to octreotide, the oxidative folding yield entry in data set [1] (oxidative folding step, run 1) is reported as “(45%)”; in data set [1] (oxidative folding step, run 2) it was greater than 95%. For the same substance, the “crude HPLC purity” value stood at 70.5% in data set [1] (oxidative folding step, analytical RP-HPLC, run 1) and 44.25% in data set [1] (oxidative folding step, analytical RP-HPLC, run 2). The step yield in data set [1] (purification step) was 70% or above. The “final HPLC purity” value in data set [1] (purification step, analytical RP-HPLC) was greater than 99%.
Regarding “Boc-D-Phe-Cys(Trt)-Phe-D-Trp-Lys(Boc)-Thr(OBut)-Cys(Trt)-Thr-OL”, the step yield in data set [1] (coupling step) is listed as greater than 95%. Also, in data set [1] (coupling step, analytical RP-HPLC), the “crude HPLC purity” value came to 81.38%.
The substance “Boc-D-Phe-Cys(Trt)-Phe-D-Trp-Lys(Boc)-Thr(OBut)-Cys(Trt)-2-Chlorotrityl resin” registered a crude yield in data set [2] greater than 90%.
“[dF]CF[dW]KTC-OH (cysteine pairing not given here)” registered an oxidative folding yield in data set [1] (oxidative folding step) greater than 95%.
